From US11541107B2, “Peptides and T cells for use in immunotherapeutic treatment of various cancers” (Immatics Biotechnologies GmbH, priority 2015, dated 2023)

System: source genes of the peptides
Assay: Target coverage of source genes based on TCGA Research Network expression data
Parameters: species or system human
Conditions: for Target coverage, over-expression category of source gene, STAD (N = 415): Stomach adenocarcinoma; for Target coverage, over-expression category of source gene, UCEC (N = 546): Uterine corpus endometrial carcinoma; for Target coverage, over-expression category of source gene, SARC: Sarcoma (N = 263); for Target coverage, over-expression category of source gene, SKCM: Skin cutaneous melanoma (N = 473); for Target coverage, over-expression category of source gene, STAD: Stomach adenocarcinoma (N = 415); for Target coverage, over-expression category of source gene, TGCT: Testicular germ cell tumors (N = 156); for Target coverage, over-expression category of source gene, THYM: Thymoma (N = 120); for Target coverage, over-expression category of source gene, UCS: Uterine carcinosarcoma (N = 57); for Target coverage, over-expression category of source gene, UCEC: Uterine corpus endometrial carcinoma (N = 546); for Target coverage, over-expression category of source gene, SARC (N = 263): Sarcoma
[1] = cutoff more than 2-fold above highest 75% percentile of normal organs

Substance | Target coverage, over-expression category of source gene, SARC | Target coverage, over-expression category of source gene, SKCM | Target coverage, over-expression category of source gene, STAD | Target coverage, over-expression category of source gene, TGCT | Target coverage, over-expression category of source gene, THYM | Target coverage, over-expression category of source gene, UCS | Target coverage, over-expression category of source gene, UCEC | further results
105: peptide found in CENPE (gene looked up) (IYNETITDLL; listed as Homo sapiens) [compound 105] | – | – | – | – | – | – | – | Target coverage, over-expression category of source gene, SKCM (N = 473) (Skin cutaneous melanoma, cutoff more than 2-fold above highest 75% percentile of normal organs): C (>=5% of tumors above the cutoff, but <20%); Target coverage, over-expression category of source gene, STAD (N = 415) [1]: A (>=50% of tumors above the cutoff); Target coverage, over-expression category of source gene, UCEC (N = 546) [1]: C (>=5% of tumors above the cutoff, but <20%)
408: peptide found in PLK4 (gene looked up) (QYASRFVQL; listed as Homo sapiens) [compound 408] | B (>=20% of tumors above the cutoff, but <50%) | C (>=5% of tumors above the cutoff, but <20%) | B (>=20% of tumors above the cutoff, but <50%) | A (>=50% of tumors above the cutoff) | B (>=20% of tumors above the cutoff, but <50%) | B (>=20% of tumors above the cutoff, but <50%) | B (>=20% of tumors above the cutoff, but <50%) | –
285: peptide found in TRPC4 (gene looked up) (VYVGDALLHAI; listed as Homo sapiens) [compound 285] | – | – | – | – | – | – | – | Target coverage, over-expression category of source gene, SARC (N = 263) [1]: C (>=5% of tumors above the cutoff, but <20%)
352: peptide found in ITGA2 (gene looked up) (QYGGDLTNTF; listed as Homo sapiens) [compound 352] | – | – | C (>=5% of tumors above the cutoff, but <20%) | – | C (>=5% of tumors above the cutoff, but <20%) | – | – | Target coverage, over-expression category of source gene, THCA (Thyroid carcinoma (N = 513)): C (>=5% of tumors above the cutoff, but <20%)
144: peptide found in CCR4 (gene looked up) (VFASLPGFLF; listed as Homo sapiens) [compound 144] | – | – | – | – | – | – | – | Target coverage, over-expression category of source gene, STAD (N = 415) [1]: C (>=5% of tumors above the cutoff, but <20%)
372: peptide found in NUP210 (gene looked up) (VYVIEPHSMEF; listed as Homo sapiens) [compound 372] | C (>=5% of tumors above the cutoff, but <20%) | B (>=20% of tumors above the cutoff, but <50%) | B (>=20% of tumors above the cutoff, but <50%) | C (>=5% of tumors above the cutoff, but <20%) | A (>=50% of tumors above the cutoff) | C (>=5% of tumors above the cutoff, but <20%) | B (>=20% of tumors above the cutoff, but <50%) | Target coverage, over-expression category of source gene, PRAD (Prostate adenocarcinoma (N = 498)): C (>=5% of tumors above the cutoff, but <20%)
369: peptide found in CDK1 (gene looked up) (VYTHEVVTL; listed as Homo sapiens) [compound 369] | B (>=20% of tumors above the cutoff, but <50%) | C (>=5% of tumors above the cutoff, but <20%) | B (>=20% of tumors above the cutoff, but <50%) | C (>=5% of tumors above the cutoff, but <20%) | B (>=20% of tumors above the cutoff, but <50%) | B (>=20% of tumors above the cutoff, but <50%) | B (>=20% of tumors above the cutoff, but <50%) | –
181: peptide found in PGR (gene looked up) (VYPPYLNYL; listed as Homo sapiens) [compound 181] | – | – | – | – | – | – | – | Target coverage, over-expression category of source gene, SARC (N = 263) [1]: C (>=5% of tumors above the cutoff, but <20%); Target coverage, over-expression category of source gene, UCS (N = 57) (Uterine carcinosarcoma, cutoff more than 2-fold above highest 75% percentile of normal organs): C (>=5% of tumors above the cutoff, but <20%); Target coverage, over-expression category of source gene, UCEC (N = 546) [1]: A (>=50% of tumors above the cutoff)

Expression values are those of the mRNA of the gene that encodes the peptide; a gene is named only where it was looked up.
